Laboratory results: US20040115749A1, “Cardiovascular disease and thrombotic risk diagnostic tests” (priority 2001, published 2004)
Some values come without a unit; they compare only within their column.

Test: Plasma 13-HODE level by 13(S)-HODE ELISA kit
Design: species or system human
Settings: for Plasma 13-HODE level: means ± sem

SMILES: CCCCCC(O)/C=C/C=C\CCCCCCCC(=O)O (centres unmarked) [13-HODE, 13-hydroxyoctadeca-9Z, 11E-dienoic acid]
- Plasma 13-HODE (ng/ml) (BRAT study patients with no (cardio)vascular thrombotic events in 2 years after CABG, range): 4,100-5308 ng/ml
- Plasma 13-HODE (BRAT study patients, smokers with events, range): >6000 ng/mL
- plasma 13-HODE levels (CABG patients <50 years of age, mean±sem): 1,811±326
- Plasma 13-HODE level (CABG patients at time of surgery, females, 51-60 years): 1616 ± 290 ng/mL
- Plasma 13-HODE level (CABG patients at time of surgery, females, 61-70 years): 1953 ± 401 ng/mL
- Plasma 13-HODE level (CABG patients at time of surgery, females, <50 years): 1532 ± 357 ng/mL
- Plasma 13-HODE level (CABG patients at time of surgery, males, 51-60 years): 1739 ± 164 ng/mL
- Plasma 13-HODE level (CABG patients at time of surgery, males, 61-70 years): 2933 ± 732 ng/mL
- Plasma 13-HODE level (CABG patients at time of surgery, males, <50 years): 1775 ± 205 ng/mL
- Plasma 13-HODE level (CABG patients at time of surgery, males, >70 years): 3120 ± 1394 ng/mL
- plasma 13-HODE levels in CABG patients relative to healthy volunteers (CABG patients versus healthy volunteers of the same age): > 10 fold
- plasma 13-HODE levels (CABG patients who were smokers): > 6000 ng/mL
- Plasma 13-HODE level (healthy volunteers, females, 51-60 years): 417 ± 25 ng/mL
- Plasma 13-HODE level (healthy volunteers, females, 61-70 years): 523 ± 60 ng/mL
- Plasma 13-HODE level (healthy volunteers, females, <50 years): 419 ± 25 ng/mL
- Plasma 13-HODE level (healthy volunteers, males, 51-60 years): 553 ± 100 ng/mL
- Plasma 13-HODE level (healthy volunteers, males, 61-70 years): 532 ± 50 ng/mL
- Plasma 13-HODE level (healthy volunteers, males, <50 years): 441 ± 60 ng/mL
- plasma 13-HODE levels (healthy volunteers, range): 214 to 670 ng/mL
- plasma 13-HODE levels (patients who did not suffer an event after CABG, range): 4100 to 5308 ng/mL
